Some of these results come from one statement about several compounds together.
Test system: hamsters
Assay: Post-coital antifertility activity in pregnant hamsters, subcutaneous (days 4-8, autopsy day 14)
Type: in vivo, Syrian golden hamsters
Conditions: 10 mg/kg s.c. daily for 5 days, days 4-8 of pregnancy, sesame oil
Description: Representative experiments for assessing antifertility activity were carried out with femal Syrian golden hamsters weighing 100 to 130 g. The animals were mated and the presence of sperm in the vagina was taken as evidence of mating. […] Pregnancy was later confirmed at the time of autopsy by presence of fetuses or implantation sites in the uterus. Even if an animal aborts the fetus, implantation scars still remain as evidence that the animal has been pregnant.
The animals were autopsied on day 14 of pregnancy and the uteri were examined for evidence of pregnancy (implantation sites, fetal resorptions or live fetuses), hemorrage, and evidence of abnormalities of the uterus, placenta or fetuses.

Q: For `CCOc1cccc(-c2n[nH]c(-c3ccccc3C)n2)c1` [Example 9, 3-(m-Ethoxyphenyl)-5-(o-tolyl)-1H-1,2,4-triazole], which “antifertility activity (active: reduction of live fetuses in at least 60% of the treated animals)” value is on record?
A: active

Q: For `C=CCOc1cccc(-c2n[nH]c(-c3ccccc3C)n2)c1` [Example 10, 3-(m-Allyloxyphenyl)-5-(o-tolyl)-1H-1,2,4-triazole], which “antifertility activity (active: reduction of live fetuses in at least 60% of the treated animals)” value is on record?
A: active

Q: How did the “antifertility activity (active: reduction of live fetuses in at least 60% of the treated animals)” value turn out when `Cc1ccccc1-c1nc(-c2ccc(-c3ccccc3)cc2)n[nH]1` [Example 11, 3-(1,1'-Biphenyl-4-yl)-5-(o-tolyl)-1H-1,2,4-triazole] was run?
A: active

Q: With `C=CCOc1cccc(-c2n[nH]c(-c3ccccc3CC)n2)c1` [Example 13, 3-(m-Allyloxyphenyl)-5-(o-ethylphenyl)-1H-1,2,4-triazole] as the compound, how does the “antifertility activity (active: reduction of live fetuses in at least 60% of the treated animals)” value read?
A: active

Q: How did the “antifertility activity (active: reduction of live fetuses in at least 60% of the treated animals)” value turn out when `CCc1ccccc1-c1nc(-c2ccc(Cl)cc2)n[nH]1` [Example 14, 3-(p-Chlorophenyl)-5-(o-ethylphenyl)-1H-1,2,4-triazole] was run?
A: active

Q: How did the “antifertility activity (active: reduction of live fetuses in at least 60% of the treated animals)” value turn out when `CC(C)c1ccccc1-c1nc(-c2ccccc2)n[nH]1` [Example 15, 5-(o-Isopropylphenyl)-3-phenyl-1H-1,2,4-triazole] was run?
A: active

Q: How did the “antifertility activity (active: reduction of live fetuses in at least 60% of the treated animals)” value turn out when `COc1cccc(-c2n[nH]c(-c3ccccc3C(C)C)n2)c1` [Example 16, 5-(o-Isopropylphenyl)-3-(m-methoxyphenyl)-1H-1,2,4-triazole] was run?
A: active

Reference: patent US4379155A, “3,5-Disubstituted-1H-1,2,4-triazole derivatives” (priority 1981, dated 1983)
